Laboratory results taken from paper PMC8791637.

Molecular target: His6-sumo-kindlin
Experiment: pull-down; His6-sumo-kindlin (100 uL of 10 uM) held on Ni-NTA resin in spin columns; 10 uM Cas or pCas added, 2 hr at 4 C; 20 mM Tris pH 7.5, 150 mM NaCl, 10 mM imidazole; eluted with 300 mM imidazole; SDS-PAGE, Coomassie; both purified

B1: unphosphorylated p130Cas (protein, UniProt Q61140 1-874)
chain: MTVPNVLAKALYDNVAESPDELSFRKGDIMTVLERDTQGLDGWWLCSLHGRQGIVPGNRLKILVGMYDKKPVGPGPGPPATPPQPQPSLPQGVHAPVPPASQYSPMLPTAYQPQSDNVYLVPTPSKTQQGLYQAPGPNPQFQSPPAKQTSTFSKQTPHHSFPSPATDLYQVPPGPGSPAQDIYQVPPSAGIGHDIYQVPPSLDTRGWEGTKPPAKVVVPTRVGQGYVYEAAQTEQDEYDTPRHLLAPGPQDIYDVPPVRGLLPNQYGQEVYDTPPMAVKGPNGRDPLLDVYDVPPSVEKGLLSSSHHSVYDVPPSVSKDVPDGPLLREETYDVPPAFAKPKPFDPTRHPLILAAPPPDSPAAEDVYDVPPPAPDLYDVPPGLRRPGPGTLYDVPRERVLPPEVADGSVVDDGVYAVPPPAEREAPTDGKRLSASSTGSTRSSQSASSLEVVVPGREPLELEVAVESLARLQQGVSTTVAHLLDLVGSASGPGGWRGTSEPQEPPAQDLKAAVAAVHGAVHELLEFARGAVSNATHTSDRTLHAKLSRQLQKMEDVYQTLVVHGQVLDSGRGSPGFTPEDLDRLVACSRAVPEDAKQLASFLHGNASLLFRRTKAPGPGPEGSSSLHPNPTDKASSIQSRPLPSPPKFTSQDSPDGQYENSEGGWMEDYDYVHLQGKEEFEKTQKELLERGNIMRQGKGQLELQQLKQFERLEQEVSRPIDHDLANWTPAQPLVPGRTGGLGPSDRQLLLFYLEQCEANLTTLTDAVDAFFTAVATNQPPKIFVAHSKFVILSAHKLVFIGDTLSRQAKAADVRSQVTHYSNLLCDLLRGIVATTKAAALQYPSPSAAQDMVDRVKELGHSTQQFRRVLGQLAAA
binding: binds

Results are given in words; binding and its absence hold for the method and conditions named. A result given as binding can be weak or reduced; the word gives no strength.
